Test results published in paper PMC2778516.
These are yes or no findings as the source states them, for the method shown. Binding seen in cells or lysates may run through a third protein.

What was measured:
[1] = molecular target: T1, Coxsackie and adenovirus receptor (rat, IEC-6 cells) (rat (endogenous in IEC-6)) (UniProt Q9R066); experiment: co-IP; Immunoprecipitation Kit Protein G (Roche); initial immunoprecipitation with anti-CAR (H-300) or anti-α-catenin antibody; IgG rabbit as control; western blotting for CAR, α-catenin or ZO-1; DLD1 and IEC-6 cells
T1 sequence: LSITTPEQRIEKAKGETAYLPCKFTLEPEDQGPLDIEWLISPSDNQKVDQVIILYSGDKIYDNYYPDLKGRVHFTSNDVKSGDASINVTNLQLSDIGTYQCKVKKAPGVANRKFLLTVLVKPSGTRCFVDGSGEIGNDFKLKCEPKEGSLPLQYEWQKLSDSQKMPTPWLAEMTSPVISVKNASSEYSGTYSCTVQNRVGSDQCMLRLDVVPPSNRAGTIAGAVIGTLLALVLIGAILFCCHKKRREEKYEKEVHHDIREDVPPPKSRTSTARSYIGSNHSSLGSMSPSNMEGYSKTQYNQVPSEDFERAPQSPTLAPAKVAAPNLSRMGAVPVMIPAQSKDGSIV

[2] = molecular target: α-catenin (rat, IEC-6 cells) (rat (endogenous in IEC-6)); experiment: as above

**Q.** Which binding [1] does the source give for α-catenin (rat, IEC-6 cells) here?
**A.** no binding

B1: Coxsackie and adenovirus receptor (rat, IEC-6 cells) (receptor, UniProt Q9R066 20-365)
chain: LSITTPEQRIEKAKGETAYLPCKFTLEPEDQGPLDIEWLISPSDNQKVDQVIILYSGDKIYDNYYPDLKGRVHFTSNDVKSGDASINVTNLQLSDIGTYQCKVKKAPGVANRKFLLTVLVKPSGTRCFVDGSGEIGNDFKLKCEPKEGSLPLQYEWQKLSDSQKMPTPWLAEMTSPVISVKNASSEYSGTYSCTVQNRVGSDQCMLRLDVVPPSNRAGTIAGAVIGTLLALVLIGAILFCCHKKRREEKYEKEVHHDIREDVPPPKSRTSTARSYIGSNHSSLGSMSPSNMEGYSKTQYNQVPSEDFERAPQSPTLAPAKVAAPNLSRMGAVPVMIPAQSKDGSIV
**Q.** How did the binding [2] turn out when B1 was run?
**A.** no binding
